One molecule from ChEMBL document CHEMBL3430321, “Simulation of multiple ion channel block provides improved early prediction of compounds' clinical torsadogenic risk” (Cardiovasc Res, 2011) can be followed below.

The experiment deals with Sodium channel protein type 5 subunit alpha (Homo sapiens, UniProt Q14524).

The IC50 is the midpoint of a concentration-inhibition curve. On to `CN(C)CCOC(c1ccccc1)c1ccccc1` [DIPHENHYDRAMINE], for which the IC50 is 41 µM.
